Measured values published in paper PMC4749977, “Alp7/TACC-Alp14/TOG generates long-lived, fast-growing MTs by an unconventional mechanism” (Scientific Reports, 2016).
These are yes or no findings as the source states them, for the method shown. In cells and extracts the contact can be indirect. Binding can be weak; no strength is given. Where a sequence is shown, tags or fusion partners need not be part of it.

Molecular target: T1, Alp14 with an AviTag, in Sf9 lysate on monomeric avidin agarose (S. pombe) (UniProt O94534)
T1 sequence (chain, biotin on the AviTag (BirA ligase co-expressed to ensure biotinylation)): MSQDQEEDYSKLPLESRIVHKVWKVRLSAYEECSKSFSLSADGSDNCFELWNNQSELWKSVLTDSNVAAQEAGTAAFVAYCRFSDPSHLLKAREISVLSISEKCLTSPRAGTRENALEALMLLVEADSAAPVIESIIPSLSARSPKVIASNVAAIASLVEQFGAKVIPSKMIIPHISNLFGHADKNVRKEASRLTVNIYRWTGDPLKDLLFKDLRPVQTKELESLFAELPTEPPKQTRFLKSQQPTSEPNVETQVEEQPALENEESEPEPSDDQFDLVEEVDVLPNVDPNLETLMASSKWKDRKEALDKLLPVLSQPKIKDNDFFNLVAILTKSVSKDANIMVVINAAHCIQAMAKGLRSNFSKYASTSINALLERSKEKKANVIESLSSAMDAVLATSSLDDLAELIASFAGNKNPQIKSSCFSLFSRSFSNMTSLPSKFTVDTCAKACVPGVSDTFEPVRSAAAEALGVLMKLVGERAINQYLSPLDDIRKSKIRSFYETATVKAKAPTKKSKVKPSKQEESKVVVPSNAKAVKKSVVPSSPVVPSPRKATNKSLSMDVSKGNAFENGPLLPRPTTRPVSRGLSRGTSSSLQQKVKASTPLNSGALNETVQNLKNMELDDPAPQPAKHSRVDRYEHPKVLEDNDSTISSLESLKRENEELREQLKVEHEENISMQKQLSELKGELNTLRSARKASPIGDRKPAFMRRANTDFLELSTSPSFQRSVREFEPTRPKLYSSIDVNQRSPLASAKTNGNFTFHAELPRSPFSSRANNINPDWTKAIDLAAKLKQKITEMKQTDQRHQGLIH
Experiment: pull-down; Avi-tagged Alp14 from Sf9 lysate supernatant held on monomeric avidin agarose; wash with 100 mM NaPO4 pH 7.2, 150 mM NaCl only (without the second wash at 450 mM NaCl)

## insect cell tubulin (complex)
  binding: binds
